From patent US20030224390A1, “Method of identifying conformation-sensitive binding peptides and uses thereof” (Karo Bio AB, priority 2000, published 2003)
No constants are given. Whether binding was seen depends on the method and setting. Some binding calls cover weakened binding; strength is not graded here.

Chains of the proteins cited; added tags and fusions are not shown.
UniProt Q92731: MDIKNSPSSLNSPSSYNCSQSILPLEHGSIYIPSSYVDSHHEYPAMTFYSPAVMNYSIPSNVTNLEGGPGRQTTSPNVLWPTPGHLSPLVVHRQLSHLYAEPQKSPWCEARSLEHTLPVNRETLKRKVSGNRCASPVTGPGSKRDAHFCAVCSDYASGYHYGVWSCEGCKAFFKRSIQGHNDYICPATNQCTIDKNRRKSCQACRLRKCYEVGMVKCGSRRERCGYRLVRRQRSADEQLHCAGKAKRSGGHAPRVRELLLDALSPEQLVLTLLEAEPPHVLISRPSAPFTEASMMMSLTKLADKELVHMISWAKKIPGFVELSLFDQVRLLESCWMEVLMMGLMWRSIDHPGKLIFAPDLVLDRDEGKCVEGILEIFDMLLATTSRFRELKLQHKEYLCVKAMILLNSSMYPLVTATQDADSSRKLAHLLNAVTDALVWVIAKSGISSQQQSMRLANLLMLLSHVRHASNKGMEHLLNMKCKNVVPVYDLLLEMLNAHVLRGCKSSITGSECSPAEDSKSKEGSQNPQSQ
UniProt P03372: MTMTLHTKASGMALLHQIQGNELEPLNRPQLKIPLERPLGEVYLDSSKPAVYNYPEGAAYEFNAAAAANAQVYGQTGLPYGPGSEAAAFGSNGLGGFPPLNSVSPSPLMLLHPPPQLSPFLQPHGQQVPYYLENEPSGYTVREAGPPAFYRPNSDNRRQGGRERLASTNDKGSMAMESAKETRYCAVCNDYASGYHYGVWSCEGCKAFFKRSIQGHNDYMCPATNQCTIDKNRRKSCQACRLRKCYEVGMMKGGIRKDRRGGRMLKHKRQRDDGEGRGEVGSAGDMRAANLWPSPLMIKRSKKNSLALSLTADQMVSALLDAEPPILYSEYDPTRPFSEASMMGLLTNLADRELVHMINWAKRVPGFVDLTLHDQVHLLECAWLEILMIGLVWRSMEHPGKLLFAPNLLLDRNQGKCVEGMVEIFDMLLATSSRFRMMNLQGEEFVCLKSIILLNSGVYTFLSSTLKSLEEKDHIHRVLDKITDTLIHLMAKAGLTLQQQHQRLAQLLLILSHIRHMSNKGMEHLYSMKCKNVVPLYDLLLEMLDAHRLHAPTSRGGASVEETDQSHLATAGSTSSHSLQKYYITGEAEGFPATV

Each binder was assayed against ER β (immobilized, in vitro phage assays) (UniProt Q92731) (assay: phage ELISA; premarin 10 µM).

| Binder | binding |
| --- | --- |
| SSWDMHQFFWEGVSR [α/β III (AB3)] | binds |
| SRLPPSVFSMCGSEVCLSR [α/β IV (AB4)] | binds |
| SSPGSREWFKDMLSR (also called 14Tβ; 14T-β) [α/β V (AB5)] | binds |
| SREWEDGFGGRWLSR (also called 4Tβ; 4T-β) [β I (B1)] | binds |
| SSLDLSQFPMTASFLRESR (also called 35Eβ) [β II (B2)] | binds |
| SSEACVGRWMLCEQLGVSR [β III (B3)] | binds |

What follows are binders tested against ER α (immobilized, in vitro phage assays) (UniProt P03372) (assay: phage ELISA; premarin 10 µM).

| Binder | binding |
| --- | --- |
| SSWDMHQFFWEGVSR [α/β III (AB3)] | binds |
| SRLPPSVFSMCGSEVCLSR [α/β IV (AB4)] | binds |
| SSPGSREWFKDMLSR (also called 14Tβ; 14T-β) [α/β V (AB5)] | binds |

What follows are binders tested against ER β (immobilized, in vitro phage assays) (UniProt Q92731) (assay: phage ELISA; estriol 1 µM).

| Binder | binding |
| --- | --- |
| SSWDMHQFFWEGVSR [α/β III (AB3)] | binds |
| SRLPPSVFSMCGSEVCLSR [α/β IV (AB4)] | binds |
| SSPGSREWFKDMLSR (also called 14Tβ; 14T-β) [α/β V (AB5)] | binds |
| SREWEDGFGGRWLSR (also called 4Tβ; 4T-β) [β I (B1)] | binds |
| SSLDLSQFPMTASFLRESR (also called 35Eβ) [β II (B2)] | binds |
| SSEACVGRWMLCEQLGVSR [β III (B3)] | binds |

Each binder was assayed against ER α (immobilized, in vitro phage assays) (UniProt P03372) (assay: phage ELISA; estriol 1 µM).

| Binder | binding |
| --- | --- |
| SSWDMHQFFWEGVSR [α/β III (AB3)] | binds |
| SRLPPSVFSMCGSEVCLSR [α/β IV (AB4)] | binds |
| SSPGSREWFKDMLSR (also called 14Tβ; 14T-β) [α/β V (AB5)] | binds |

Each binder was assayed against ER β (immobilized, in vitro phage assays) (UniProt Q92731) (assay: phage ELISA; ICI 182,780 1 µM).

| Binder | binding |
| --- | --- |
| SSWDMHQFFWEGVSR [α/β III (AB3)] | binds |
| SRLPPSVFSMCGSEVCLSR [α/β IV (AB4)] | binds |
| SSEACVGRWMLCEQLGVSR [β III (B3)] | binds |

The binders below were run against ER α (immobilized, in vitro phage assays) (UniProt P03372) (assay: phage ELISA; ICI 182,780 1 µM).

| Binder | binding |
| --- | --- |
| SSWDMHQFFWEGVSR [α/β III (AB3)] | binds |
| SSPGSREWFKDMLSR (also called 14Tβ; 14T-β) [α/β V (AB5)] | binds |

These binders were tested against ER β (immobilized, in vitro phage assays) (UniProt Q92731) (assay: phage binding, unliganded ER β).

| Binder | binding |
| --- | --- |
| HGPLTLNLLRSSGG [#41 ER + estradiol (Table 3)] | binds |

What follows are binders tested against ER β (immobilized, in vitro phage assays) (UniProt Q92731) (assay: phage ELISA; buffer).

| Binder | binding |
| --- | --- |
| SSWDMHQFFWEGVSR [α/β III (AB3)] | binds |
| SRLPPSVFSMCGSEVCLSR [α/β IV (AB4)] | binds |
| SSPGSREWFKDMLSR (also called 14Tβ; 14T-β) [α/β V (AB5)] | binds |
| SREWEDGFGGRWLSR (also called 4Tβ; 4T-β) [β I (B1)] | binds |
| SSLDLSQFPMTASFLRESR (also called 35Eβ) [β II (B2)] | binds |
| SSEACVGRWMLCEQLGVSR [β III (B3)] | binds |

The binders below were run against ER α (immobilized, in vitro phage assays) (UniProt P03372) (assay: phage ELISA; buffer).

| Binder | binding |
| --- | --- |
| SSWDMHQFFWEGVSR [α/β III (AB3)] | binds |
| SRLPPSVFSMCGSEVCLSR [α/β IV (AB4)] | binds |
| SSPGSREWFKDMLSR (also called 14Tβ; 14T-β) [α/β V (AB5)] | binds |

What follows are binders tested against ER β (immobilized, in vitro phage assays) (UniProt Q92731) (assay: phage ELISA; progesterone 1 µM).

| Binder | binding |
| --- | --- |
| SSWDMHQFFWEGVSR [α/β III (AB3)] | binds |
| SRLPPSVFSMCGSEVCLSR [α/β IV (AB4)] | binds |
| SSPGSREWFKDMLSR (also called 14Tβ; 14T-β) [α/β V (AB5)] | binds |
| SREWEDGFGGRWLSR (also called 4Tβ; 4T-β) [β I (B1)] | binds |
| SSEACVGRWMLCEQLGVSR [β III (B3)] | binds |

What follows are binders tested against ER α (immobilized, in vitro phage assays) (UniProt P03372) (assay: phage ELISA; progesterone 1 µM).

| Binder | binding |
| --- | --- |
| SSWDMHQFFWEGVSR [α/β III (AB3)] | binds |
| SRLPPSVFSMCGSEVCLSR [α/β IV (AB4)] | binds |
| SSPGSREWFKDMLSR (also called 14Tβ; 14T-β) [α/β V (AB5)] | binds |

These binders were tested against ER β (immobilized, in vitro phage assays) (UniProt Q92731) (assay: phage ELISA; raloxifene 1 µM).

| Binder | binding |
| --- | --- |
| SSWDMHQFFWEGVSR [α/β III (AB3)] | binds |
| SRLPPSVFSMCGSEVCLSR [α/β IV (AB4)] | binds |
| SSPGSREWFKDMLSR (also called 14Tβ; 14T-β) [α/β V (AB5)] | binds |
| SREWEDGFGGRWLSR (also called 4Tβ; 4T-β) [β I (B1)] | binds |
| SSEACVGRWMLCEQLGVSR [β III (B3)] | binds |

The binders below were run against ER α (immobilized, in vitro phage assays) (UniProt P03372) (assay: phage ELISA; raloxifene 1 µM).

| Binder | binding |
| --- | --- |
| SSWDMHQFFWEGVSR [α/β III (AB3)] | binds |
| SRLPPSVFSMCGSEVCLSR [α/β IV (AB4)] | binds |
| SSPGSREWFKDMLSR (also called 14Tβ; 14T-β) [α/β V (AB5)] | binds |

What follows are binders tested against ER β (immobilized, in vitro phage assays) (UniProt Q92731) (assay: phage ELISA; nafoxidine 10 µM).

| Binder | binding |
| --- | --- |
| SSWDMHQFFWEGVSR [α/β III (AB3)] | binds |
| SRLPPSVFSMCGSEVCLSR [α/β IV (AB4)] | binds |
| SSPGSREWFKDMLSR (also called 14Tβ; 14T-β) [α/β V (AB5)] | binds |
| SREWEDGFGGRWLSR (also called 4Tβ; 4T-β) [β I (B1)] | binds |
| SSEACVGRWMLCEQLGVSR [β III (B3)] | binds |

The binders below were run against ER α (immobilized, in vitro phage assays) (UniProt P03372) (assay: phage ELISA; nafoxidine 10 µM).

| Binder | binding |
| --- | --- |
| SSWDMHQFFWEGVSR [α/β III (AB3)] | binds |
| SRLPPSVFSMCGSEVCLSR [α/β IV (AB4)] | binds |
| SSPGSREWFKDMLSR (also called 14Tβ; 14T-β) [α/β V (AB5)] | binds |

What follows are binders tested against ER β (immobilized, in vitro phage assays) (UniProt Q92731) (assay: phage ELISA; clomiphene 10 µM).

| Binder | binding |
| --- | --- |
| SSWDMHQFFWEGVSR [α/β III (AB3)] | binds |
| SRLPPSVFSMCGSEVCLSR [α/β IV (AB4)] | binds |
| SSPGSREWFKDMLSR (also called 14Tβ; 14T-β) [α/β V (AB5)] | binds |
| SREWEDGFGGRWLSR (also called 4Tβ; 4T-β) [β I (B1)] | binds |
| SSEACVGRWMLCEQLGVSR [β III (B3)] | binds |

The binders below were run against ER α (immobilized, in vitro phage assays) (UniProt P03372) (assay: phage ELISA; clomiphene 10 µM).

| Binder | binding |
| --- | --- |
| SSWDMHQFFWEGVSR [α/β III (AB3)] | binds |
| SRLPPSVFSMCGSEVCLSR [α/β IV (AB4)] | binds |
| SSPGSREWFKDMLSR (also called 14Tβ; 14T-β) [α/β V (AB5)] | binds |

The binders below were run against ER β (immobilized, in vitro phage assays) (UniProt Q92731) (assay: phage ELISA; DES 1 µM).

| Binder | binding |
| --- | --- |
| SSWDMHQFFWEGVSR [α/β III (AB3)] | binds |
| SRLPPSVFSMCGSEVCLSR [α/β IV (AB4)] | binds |
| SSPGSREWFKDMLSR (also called 14Tβ; 14T-β) [α/β V (AB5)] | binds |
| SREWEDGFGGRWLSR (also called 4Tβ; 4T-β) [β I (B1)] | binds |
| SSLDLSQFPMTASFLRESR (also called 35Eβ) [β II (B2)] | binds |
| SSEACVGRWMLCEQLGVSR [β III (B3)] | binds |

The binders below were run against ER α (immobilized, in vitro phage assays) (UniProt P03372) (assay: phage ELISA; DES 1 µM).

| Binder | binding |
| --- | --- |
| SSWDMHQFFWEGVSR [α/β III (AB3)] | binds |
| SRLPPSVFSMCGSEVCLSR [α/β IV (AB4)] | binds |
| SSPGSREWFKDMLSR (also called 14Tβ; 14T-β) [α/β V (AB5)] | binds |

Each binder was assayed against ER β (immobilized, in vitro phage assays) (UniProt Q92731) (assay: phage ELISA; estradiol 1 µM).

| Binder | binding |
| --- | --- |
| SSWDMHQFFWEGVSR [α/β III (AB3)] | binds |
| SRLPPSVFSMCGSEVCLSR [α/β IV (AB4)] | binds |
| SSPGSREWFKDMLSR (also called 14Tβ; 14T-β) [α/β V (AB5)] | binds |
| SREWEDGFGGRWLSR (also called 4Tβ; 4T-β) [β I (B1)] | binds |
| SSLDLSQFPMTASFLRESR (also called 35Eβ) [β II (B2)] | binds |
| SSEACVGRWMLCEQLGVSR [β III (B3)] | binds |

The binders below were run against ER α (immobilized, in vitro phage assays) (UniProt P03372) (assay: phage ELISA; estradiol 1 µM).

| Binder | binding |
| --- | --- |
| SSWDMHQFFWEGVSR [α/β III (AB3)] | binds |
| SRLPPSVFSMCGSEVCLSR [α/β IV (AB4)] | binds |
| SSPGSREWFKDMLSR (also called 14Tβ; 14T-β) [α/β V (AB5)] | binds |

These binders were tested against ER β (immobilized, in vitro phage assays) (UniProt Q92731) (assay: phage ELISA; 4-OH tamoxifen 1 µM).

| Binder | binding |
| --- | --- |
| SSWDMHQFFWEGVSR [α/β III (AB3)] | binds |
| SRLPPSVFSMCGSEVCLSR [α/β IV (AB4)] | binds |
| SSPGSREWFKDMLSR (also called 14Tβ; 14T-β) [α/β V (AB5)] | binds |
| SREWEDGFGGRWLSR (also called 4Tβ; 4T-β) [β I (B1)] | binds |
| SSEACVGRWMLCEQLGVSR [β III (B3)] | binds |

These binders were tested against ER α (immobilized, in vitro phage assays) (UniProt P03372) (assay: phage ELISA; 4-OH tamoxifen 1 µM).

| Binder | binding |
| --- | --- |
| SSWDMHQFFWEGVSR [α/β III (AB3)] | binds |
| SRLPPSVFSMCGSEVCLSR [α/β IV (AB4)] | binds |
| SSPGSREWFKDMLSR (also called 14Tβ; 14T-β) [α/β V (AB5)] | binds |

What follows are binders tested against ER α (immobilized, in vitro phage assays) (UniProt P03372) (assay: phage binding, unliganded ER α).

| Binder | binding |
| --- | --- |
| HGPLTLNLLRSSGG [#41 ER + estradiol (Table 3)] | binds |

These binders were tested against ER β (immobilized, in vitro phage assays) (UniProt Q92731) (assay: phage ELISA; 16α-OH estrone 10 µM).

| Binder | binding |
| --- | --- |
| SSWDMHQFFWEGVSR [α/β III (AB3)] | binds |
| SRLPPSVFSMCGSEVCLSR [α/β IV (AB4)] | binds |
| SSPGSREWFKDMLSR (also called 14Tβ; 14T-β) [α/β V (AB5)] | binds |
| SREWEDGFGGRWLSR (also called 4Tβ; 4T-β) [β I (B1)] | binds |
| SSLDLSQFPMTASFLRESR (also called 35Eβ) [β II (B2)] | binds |
| SSEACVGRWMLCEQLGVSR [β III (B3)] | binds |

These binders were tested against ER α (immobilized, in vitro phage assays) (UniProt P03372) (assay: phage ELISA; 16α-OH estrone 10 µM).

| Binder | binding |
| --- | --- |
| SSWDMHQFFWEGVSR [α/β III (AB3)] | binds |
| SRLPPSVFSMCGSEVCLSR [α/β IV (AB4)] | binds |
| SSPGSREWFKDMLSR (also called 14Tβ; 14T-β) [α/β V (AB5)] | binds |
